Test [1] addresses Flag-EXOC2 (human) (UniProt Q96KP1). The test can be described thus: co-IP; HEK293T co-transfected with Flag-tagged exocyst subunit and HA-tagged ARF6 or its variants; anti-Flag M2 beads; western blot.
Test [2] addresses GST-EXOC2 (human) (UniProt Q96KP1). Kind of test: pull-down; 500 ng GST or GST-EXOC2 mixed with 200 ng WT or mutant ARF6-Flag in Buffer G (50 mM Tris, pH 7.5, 150 mM NaCl, 0.1% Triton X-100); BSA-blocked Glutathione Sepharose 4B, 1 h at 4 °C; western blot; both purified.

Amino acid sequences for entries named in this document (tags omitted). A change or cut given only in a name is not applied to a line headed by its entry.
UniProt Q96KP1: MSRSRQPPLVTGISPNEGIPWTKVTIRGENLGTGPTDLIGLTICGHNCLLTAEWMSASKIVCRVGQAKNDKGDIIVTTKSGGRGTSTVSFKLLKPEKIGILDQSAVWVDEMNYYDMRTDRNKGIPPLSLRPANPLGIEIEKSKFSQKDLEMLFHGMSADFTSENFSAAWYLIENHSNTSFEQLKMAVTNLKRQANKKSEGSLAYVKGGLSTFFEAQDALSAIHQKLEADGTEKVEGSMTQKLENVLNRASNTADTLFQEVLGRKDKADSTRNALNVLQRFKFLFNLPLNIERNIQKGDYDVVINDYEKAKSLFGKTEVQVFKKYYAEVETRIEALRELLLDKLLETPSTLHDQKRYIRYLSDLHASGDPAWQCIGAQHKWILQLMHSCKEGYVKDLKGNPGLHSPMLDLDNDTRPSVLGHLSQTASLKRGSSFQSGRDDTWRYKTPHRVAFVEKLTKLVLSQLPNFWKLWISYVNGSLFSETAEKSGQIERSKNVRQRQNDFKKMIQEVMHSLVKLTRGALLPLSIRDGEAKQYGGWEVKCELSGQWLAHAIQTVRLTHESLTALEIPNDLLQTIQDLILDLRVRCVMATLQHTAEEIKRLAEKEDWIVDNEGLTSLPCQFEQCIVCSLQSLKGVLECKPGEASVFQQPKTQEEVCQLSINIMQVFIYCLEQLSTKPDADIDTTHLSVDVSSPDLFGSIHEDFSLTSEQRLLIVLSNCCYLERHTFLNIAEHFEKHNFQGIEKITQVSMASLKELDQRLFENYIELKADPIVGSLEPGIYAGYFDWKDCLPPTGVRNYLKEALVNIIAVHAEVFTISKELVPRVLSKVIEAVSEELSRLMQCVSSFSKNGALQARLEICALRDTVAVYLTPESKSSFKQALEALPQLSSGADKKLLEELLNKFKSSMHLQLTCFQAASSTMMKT
UniProt P62330: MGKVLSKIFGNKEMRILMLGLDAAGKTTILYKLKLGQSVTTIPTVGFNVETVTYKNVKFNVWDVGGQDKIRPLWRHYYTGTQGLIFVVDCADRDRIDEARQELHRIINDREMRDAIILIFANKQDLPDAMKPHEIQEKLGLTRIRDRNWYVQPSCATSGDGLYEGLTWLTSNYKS

Experimental findings from publication PMC9556547 are described below.

No constants are given. Whether binding was seen depends on the method and setting. For some of these results: In cells and extracts the contact can be indirect. Some results given as binding are weak or reduced against the parent protein; the word gives no strength.

Take “ARF6 Q67L-HA (from UniProt P62330 1-175)”: the binding entry in test [1] was “binds”.

For the substance “ARF6 T27N-HA (from UniProt P62330 1-175)”, the binding result in test [1] is on record as “binds”.

Regarding “ARF6-Flag (WT) (from UniProt P62330 1-175)”, in test [2], the binding result is given as “binds”.

Turning to “ARF6-HA (WT) (from UniProt P62330 1-175)”, the binding entry in test [1] is reported as “binds”.
